Results deposited as PubChem BioAssay AID743454 (Peter MacCallum Cancer Centre, 2014)

Assay: 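Genes whose loss kills vorinostat-resistant colon cancer cells under vorinostat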 (primary screen)
Cell system: human HCT116-VR colon cancer cells, selected for vorinostat resistance
Knock-down reagent: siRNA pool against human genes, 40 nM siRNA pool
Duration: vorinostat for 24 h, read-out about 72 h after transfection
Conditions: vorinostat at 2.5 µM final
Measurement: 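Two measures, CellTiter-Fluor viability and luminescent caspase 3/7 activity, each as fold change against same-plate mock wells, mean of duplicates, then screen-wide robust z-score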
Scale: viability robust z-score: higher = more viable cells than screen typical; caspase robust z-score: higher = more caspase 3/7 activity than screen typical
Hit rule: 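a knock-down is a hit when classed RV1 or RV2 for lowered viability, or CA1 or CA2 for caspase activation; those lethal without drug were dropped; hits were retested singly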
The whole screen tested about 18,000 reagents; shown is a part drawn at random. Of all reagents, 450 (2.5%) were called active. 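Single biological run; no consistent viability z cut-off exists, so the class columns, not z-scores, define the calls.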 Entries without a mark were called inactive. Reagent sequences are not shown.

For TEX101 (GeneID 83639), how do the results read?
viability hit class: no change; caspase hit class: no change; viability robust z-score: 1.18; caspase robust z-score: 0.05

Which result is listed for NLRP10 (GeneID 338322)?
viability hit class: no change; caspase hit class: no change; viability robust z-score: 0.42; caspase robust z-score: -0.6

For RPS6KA1 (GeneID 6195), how do the results read?
viability hit class: no change; caspase hit class: no change; viability robust z-score: -2.06; caspase robust z-score: -0.87

Which result is listed for DNTT (GeneID 1791)?
viability hit class: no change; caspase hit class: no change; viability robust z-score: -0.58; caspase robust z-score: -0.04

For CTAG2 (GeneID 30848), what was measured?
viability hit class: no change; caspase hit class: no change; viability robust z-score: -0.63; caspase robust z-score: -0.92

For ALG10B (GeneID 144245), what was measured?
viability hit class: no change; caspase hit class: no change; viability robust z-score: 0.5; caspase robust z-score: 0.3

For VDAC1 (GeneID 7416), what was measured?
viability hit class: no change; caspase hit class: no change; viability robust z-score: -0.72; caspase robust z-score: -0.92

How did the screen score NOXO1 (GeneID 124056)?
viability hit class: no change; caspase hit class: no change; viability robust z-score: 0.75; caspase robust z-score: 0.02

Which result is listed for RSU1 (GeneID 6251)?
viability hit class: no change; caspase hit class: no change; viability robust z-score: -0.96; caspase robust z-score: 1.22

Which result is listed for GARNL3 (GeneID 84253)?
viability hit class: no change; caspase hit class: no change; viability robust z-score: -0.63; caspase robust z-score: -0.94

Which result is listed for ADA (GeneID 100)?
viability hit class: no change; caspase hit class: no change; viability robust z-score: -0.52; caspase robust z-score: 0.22

What did the screen give for GLOD4 (GeneID 51031)?
viability hit class: no change; caspase hit class: no change; viability robust z-score: 1.05; caspase robust z-score: -0.7

With SLC16A2 (GeneID 6567), what does the deposit list?
viability hit class: no change; caspase hit class: no change; viability robust z-score: 0.5; caspase robust z-score: -0.64

With TTC38 (GeneID 55020), how do the results read?
viability hit class: no change; caspase hit class: no change; viability robust z-score: 0.97; caspase robust z-score: -0.26

How did the screen score CATSPER3 (GeneID 347732)?
viability hit class: no change; caspase hit class: no change; viability robust z-score: -0.51; caspase robust z-score: 0.16

What is on record for IDH3G (GeneID 3421)?
viability hit class: no change; caspase hit class: no change; viability robust z-score: -0.55; caspase robust z-score: 2.15

Entries above whose target name begins with R or r:
RPS6KA1 (GeneID 6195): viability hit class = no change; caspase hit class = no change; viability robust z-score = -2.06; caspase robust z-score = -0.87
RSU1 (GeneID 6251): viability hit class = no change; caspase hit class = no change; viability robust z-score = -0.96; caspase robust z-score = 1.22

Further results:
Which result is listed for KRT83 (GeneID 3889)?
viability hit class: no change; caspase hit class: no change; viability robust z-score: 0.33; caspase robust z-score: 0.56

For CTU1 (GeneID 90353), what was measured?
viability hit class: no change; caspase hit class: no change; viability robust z-score: -0.58; caspase robust z-score: 0.38

How did the screen score OR10A4 (GeneID 283297)?
viability hit class: no change; caspase hit class: no change; viability robust z-score: 0.68; caspase robust z-score: -0.37

What is on record for AUTS2 (GeneID 26053)?
viability hit class: no change; caspase hit class: no change; viability robust z-score: 0.23; caspase robust z-score: -0.66

What did the screen give for PDLIM4 (GeneID 8572)?
viability hit class: no change; caspase hit class: no change; viability robust z-score: 0.93; caspase robust z-score: 0.89

With COL9A2 (GeneID 1298), what does the deposit list?
viability hit class: no change; caspase hit class: no change; viability robust z-score: 0.8; caspase robust z-score: 0.22

For OR2L8 (GeneID 391190), how do the results read?
viability hit class: no change; caspase hit class: no change; viability robust z-score: -0.3; caspase robust z-score: 0

With SELENOF (GeneID 9403), how do the results read?
viability hit class: no change; caspase hit class: no change; viability robust z-score: 0.76; caspase robust z-score: -0.16

How did the screen score BLZF1 (GeneID 8548)?
viability hit class: no change; caspase hit class: no change; viability robust z-score: 0.99; caspase robust z-score: -0.68

What is on record for IFNA10 (GeneID 3446)?
viability hit class: no change; caspase hit class: no change; viability robust z-score: 0.69; caspase robust z-score: 0.8

What is on record for RFC2 (GeneID 5982)?
viability hit class: no change; caspase hit class: no change; viability robust z-score: -1.15; caspase robust z-score: 0.18
